According to publication PMC9740559, “Molecular and Pharmacological Characterization of β-Adrenergic-like Octopamine Receptors in the Endoparasitoid Cotesia chilonis (Hymenoptera: Braconidae)” (International Journal of Molecular Sciences, 2022):

Tests used:
CcOctβ1R = tested on: T1, CcOctβ1R; conditions: read-out: CcOctβ1R / IC50; antagonist; non-saturating OA (100 nM); 100 μM IBMX; 25 °C
T1 construct: gene Octβ1R
Description: inhibition of OA-induced cAMP in stable CHO-K1 cells (cAMP immunoassay) on CcOctβ1R

CcOctβ2R = tested on: T2, CcOctβ2R; conditions: read-out: CcOctβ2R / IC50; antagonist; non-saturating OA (30 nM); 100 μM IBMX; 25 °C
T2 construct: gene Octβ2R
Description: inhibition of OA-induced cAMP in stable CHO-K1 cells (cAMP immunoassay) on CcOctβ2R

Work on CN1CCN2c3ccccc3Cc3ccccc3C2C1 (centres unmarked) [Mianserin] yielded an IC50 (CcOctβ1R) of 157 nM and an IC50 (CcOctβ2R) of 75.8 nM.
